In paper PMC8675912:
No constants are given. Whether binding was seen depends on the method and setting. Binding seen in cells or lysates may run through a third protein. Some results given as binding are weak or reduced against the parent protein; the word gives no strength.

The chains behind the UniProt entries cited, without tags or fusion partners.
UniProt P29066: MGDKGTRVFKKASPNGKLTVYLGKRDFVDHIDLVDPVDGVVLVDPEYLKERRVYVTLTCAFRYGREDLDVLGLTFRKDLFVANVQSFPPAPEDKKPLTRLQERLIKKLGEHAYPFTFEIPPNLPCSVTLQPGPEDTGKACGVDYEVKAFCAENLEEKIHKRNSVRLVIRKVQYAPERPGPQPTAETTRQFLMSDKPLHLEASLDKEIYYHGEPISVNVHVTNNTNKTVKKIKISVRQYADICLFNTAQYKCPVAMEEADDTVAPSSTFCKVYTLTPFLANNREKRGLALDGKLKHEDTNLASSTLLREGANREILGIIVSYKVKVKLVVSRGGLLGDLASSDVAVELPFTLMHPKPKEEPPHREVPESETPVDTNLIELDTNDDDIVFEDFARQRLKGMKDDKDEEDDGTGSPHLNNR

Molecular target: p62/SQSTM1 (UniProt Q13501)
Test: co-IP; HeLa-V5-tau cells transiently transfected; lysed in CHAPS buffer (30 mM Tris-Cl pH 7.5, 150 mM NaCl, 1% CHAPS); immunoprecipitation for HA overnight at 4°C, immunoblotting for GFP, HA (and myc); with control vector or β-arrestin1-myc overexpression

## GFP-β-arrestin1 (from UniProt P29066 1-418)
  binding: binds
